Data taken from PubChem BioAssay AID540256 (National Center for Advancing Translational Sciences (NCATS), 2011).
Values joined by “and” are separate entries in the source; they are usually repeats but may differ in a detail not shown here. Identical values can stand only once. About 3,700 (1.2%) of roughly 300,000 compounds were called active. Inconclusive results, whose numbers are uncertain, are shown with a selection of clear calls. Calls come from the whole dose curve; tested in HEK293 cells. A potency beside an inconclusive call is a rough fit, not a confirmed value.

test: qHTS for Inhibitors of binding or entry into cells for Lassa Virus; details: Lassa virus pseudotype entry inhibition, cell reporter; series mostly up to 37.9 µM; note: nearly all actives have a fitted effect of over 50% in size
Potency is the fitted concentration of half-maximal effect.

SMILES | Potency
CCc1ccc(OCC(=O)O/N=C(\N)c2ccncc2)c(Br)c1 | inactive
CCOc1cc(C(=S)N2CCN(C)CC2)ccc1OCC(=O)N1CCOCC1 | inconclusive: 0.13 µM [activator, full curve, poor fit]
O=C(O)Cc1sc(Nc2ccc(F)cc2)nc1-c1cccs1 | inconclusive: 7.08 µM [activator, partial curve]
O=C1N(c2cccc(Cl)c2)C(c2cccnc2)N2CCCN12 (stereo not drawn) | inactive
COc1cc2[nH]c3c(=O)n4c(nc3c2cc1OC)SCCC4 | inconclusive: 31.6 µM [inhibitor, single point]
COc1ccccc1CCNC(=O)C(=O)NCC1OCCN1S(=O)(=O)c1cccs1 (stereo not drawn) | inconclusive: 0.112 µM [inhibitor, full curve, poor fit]
CCOC(=O)N1CCC(N(CCOC)C(=O)Nc2ccc(CC)cc2)CC1 | inactive
NC(=O)CN1C(=O)NC2(CCCc3sccc32)C1=O (stereo not drawn) | inactive
COc1ccccc1N1CCN(C(=O)Cc2cccs2)CC1 | inactive
COc1ccc(COC(=O)C2=C(C)NC(=O)NC2c2ccccc2)cc1 (stereo not drawn) | inconclusive: 11.2 µM [inhibitor, partial curve, poor fit]
Cc1cc(NC(=O)CSCC(=O)N(c2ccc(F)cc2)C(C(=O)NC2CCCCC2)c2ccc(O)c(O)c2)no1 (stereo not drawn) | inconclusive: 8.2 µM [inhibitor, partial curve, poor fit]
Fc1ccc(-c2ncn(C3CCNCC3)c2-c2ccnc(Oc3ccc4c(c3)OCO4)n2)cc1 | active: 12.5 µM
COc1cccc(N2C(=O)Nc3ccc(Br)cc3C2(O)C(=O)NCCCOC(C)C)c1 (stereo not drawn) | inactive
CCOC(=O)c1sc(NC(=O)CC)nc1C | inconclusive: 7.94 µM [inhibitor, partial curve, poor fit]
CCOc1cc(/C=N/n2c(C)nc3ccccc3c2=O)ccc1O | inconclusive: 3.16 µM [inhibitor, full curve]
Cc1cc2c3c([nH]c2cc1S(=O)(=O)NCc1ccc(CN2CCCCCC2)o1)CC(C)(C)CC3=O | inconclusive: 35.5 µM [inhibitor, single point]
CCCCCNc1nc(N2CCCC2)c2c(c1C#N)CCN(C)C2 | inconclusive: 12.6 µM [inhibitor, single point]
O=C1NC(=O)C(=Cc2ccccc2OCCOc2ccc([N+](=O)[O-])cc2)C(=O)N1 | inconclusive: 11.2 µM [inhibitor, partial curve]
O=C(NCC1CCN(c2ccc(S(=O)(=O)N3CCOCC3)cc2)CC1)c1ccc(Cl)cc1 | inconclusive: 22.4 µM [inhibitor, single point]
Cc1ccccc1NC(=O)CSc1nc(-c2ccccc2)cn1-c1ccccc1F | inconclusive: 12.6 µM [inhibitor, single point]
CCOC(=O)c1sc2nccc(N(C)C)c2c1N=CNOC | inactive
COc1ccc(C(=O)OCC(=O)NCCN2C(=O)CSC2=O)cc1 | inactive
Cc1cc(-c2nc3ccccc3s2)ccc1N | active: 3.55 µM

SMILES | Potency
COc1ccc(/C=C/C(=O)N(c2ccccn2)C2CCCCC2)cc1OC | inconclusive: 8.91 µM [inhibitor, partial curve, poor fit]
COc1cccc(OCCSc2nc3ccccc3c(=O)[nH]2)c1 | inconclusive: 0.355 µM [inhibitor, full curve, poor fit]
COC(=O)/C=C1\N/C(=N/c2nc(C)c3cc(OC)ccc3n2)NC1=O | inconclusive: 1 µM [inhibitor, single point]
COc1ccc(NC(=O)c2sc3nc4c(cc3c2N)CCCCCC4)cc1 | inconclusive: 11.2 µM [inhibitor, partial curve, poor fit]
COc1cccc(-n2c(-c3ccccc3F)nc3c(cnn3-c3ccc(C)cc3)c2=O)c1 | inconclusive: 35.5 µM [inhibitor, partial curve, poor fit]
Cc1ccc2nc(-c3ccccn3)[nH]c2c1 | active: 6.31 µM
CC1=NN(c2nc(-c3ccc(C)cc3)cs2)C(=O)C1N=Nc1ccccc1O (stereo not drawn) | inconclusive: 5.62 µM [inhibitor, single point]
O=C(OCCN1CCOCC1)c1ccc2c(c1)OCCO2 | inconclusive: 8.91 µM [activator, partial curve, poor fit]
COc1cc(/C=N/NC(=O)c2cc3ccccc3cc2O)ccc1OCCN1CCCCC1 | inactive
CCOc1ccc(C(=O)COC(=O)c2c(-c3ccccc3)noc2C)cc1 | inconclusive: 14.1 µM [inhibitor, partial curve, poor fit]
COc1cc(NC(=O)C(C)Oc2ccccc2)c(OC)cc1NC(=O)c1ccccc1 (stereo not drawn) | inactive
CCN(CC)S(=O)(=O)c1cccc(NC(=O)c2cccc(S(=O)(=O)N3CCCC3)c2)c1 | inconclusive: 22.4 µM [inhibitor, partial curve, poor fit]
CC12CCC(C(=O)N3CCOCC3)([C@H](Br)C1=O)C2(C)C (stereo partly drawn) | inconclusive: 10 µM [activator, partial curve, poor fit]
COc1cc(NS(=O)(=O)c2ccc(NC(=S)NC(=O)CC(C)C)cc2)nc(OC)n1 | inactive
CCC(C)(C)NC(=O)C(c1ccc(OC)cc1)N(C(=O)CCC(=O)Nc1cc(C)on1)c1ccc(OC)cc1OC (stereo not drawn) | inconclusive: 11.2 µM [inhibitor, partial curve, poor fit]
O=[N+]([O-])c1cccc(CN2CCN(S(=O)(=O)Cc3ccccc3)CC2)c1 | inconclusive: 3.55 µM [inhibitor, single point]
Cc1ccccc1OCC(=O)Nc1ccccc1N1CCOCC1 | inconclusive: 10 µM [inhibitor, partial curve]
COc1ccc(C(=O)NC(C)CCc2ccccc2)cc1[N+](=O)[O-] (stereo not drawn) | inactive
CCOc1ccc(S(=O)(=O)N2CCC(C(=O)NCC3CCCO3)CC2)cc1C (stereo not drawn) | inactive
O=C(COc1ccccc1)NCc1ccccc1 | inactive
COc1cc(/C=C2\C(=O)ON=C2c2ccccc2)cc(Br)c1O | inactive
Cc1cc(C)c(C#N)c(SCc2ccc(C(=O)O)cc2)n1 | inconclusive: 35.5 µM [activator, single point]
CC(c1ccco1)N(C(=O)c1ccc(C(F)(F)F)cc1)c1ccccn1 (stereo not drawn) | inconclusive: 35.5 µM [inhibitor, single point]

SMILES | Potency
COc1ccc(C(C(=O)NC2CCCC2)N(Cc2ccco2)C(=O)c2snc(C(N)=O)c2N)cc1OC (stereo not drawn) | inconclusive: 5.62 µM [activator, single point]
COc1ccc(-c2cc(C(=O)N3CCN(c4ccccc4)CC3)c3ccccc3n2)cc1OC | active: 4.47 µM
N#CC1=C(N)N2C(=C(C#N)C1c1cccc(Br)c1)Nc1ccccc12 (stereo not drawn) | inconclusive: 17.8 µM [inhibitor, single point]
CCN1CCCC1CNCc1cc(OC)c(OC)c(OC)c1 (stereo not drawn) | inactive
COc1ccc(C2=NN(C(C#N)c3ccc(OC)cc3)C(c3ccccc3)C2)cc1 (stereo not drawn) | inconclusive: 31.6 µM [inhibitor, single point]
N#Cc1ccc(-n2nnc3ccccc3c2=O)c([N+](=O)[O-])c1 | inconclusive: 1.41 µM [inhibitor, partial curve, poor fit]
Cc1nc2ccccc2c(=O)n1/N=C/c1ccc(OC(F)F)cc1 | inconclusive: 0.891 µM [inhibitor, single point]
Cc1ccc(S(=O)(=O)N2CCC(=O)N(CCOCc3cccc(C(F)(F)F)c3)CC2)cc1 | inconclusive: 3.96 µM [inhibitor, full curve, poor fit] and inconclusive: 20.6 µM [inhibitor, partial curve, poor fit]
O=C(Nc1ccc2nn(-c3ccccc3)nc2c1)c1ccco1 | inactive
Cc1ccc(NC(=O)Nc2ccc3nc(N4CCN(C)CC4)cc(C)c3c2)cc1F | inconclusive: 35.5 µM [inhibitor, single point]
Cn1nc(C(=O)NC(C)(C)C)c2ccccc21 | inconclusive: 6.51 µM [inhibitor, partial curve, poor fit]
O=C(O)c1cccc(Cn2c(Cl)c(/C=N/NC(=O)c3ccc(O)cc3)sc2=O)c1 | inactive
Clc1ccc(C2=CSC3=NCCN23)c(Cl)c1 | inconclusive: 4.47 µM [inhibitor, single point]
Cc1ccc(/C=N/Nc2nc(Cl)c(Cl)cc2Cl)s1 | inconclusive: 0.231 µM [inhibitor, single point]
CCOC(=O)c1c(/N=C/C2C(=O)NC(=S)NC2=O)sc2c1CCC2 | inconclusive: 1.58 µM [activator, partial curve, poor fit]
CCCCNC(=O)C(=O)N/N=C/c1ccc(OCC(=O)Nc2cccc(OC)c2)c(OC)c1 | inconclusive: 22.4 µM [inhibitor, single point]
CCOc1ccc(/C=C2\SC(=O)N(CCNC(=O)C3COc4ccccc4O3)C2=O)cc1OC (stereo not drawn) | inconclusive: 35.5 µM [inhibitor, single point]
CN(C)c1ccc(/C=N\NC(=O)c2csnn2)cc1 | inconclusive: 28.2 µM [inhibitor, single point]
CCOc1ccc(CCNC(=O)c2cc3c(=O)n(C)c4ccccc4c3n2C)cc1OCC | inactive
CCC(=NCc1ccco1)c1c(O)n(-c2ccccc2)c(=O)[nH]c1=O | inconclusive: 5.01 µM [inhibitor, partial curve]
CCN(CC)S(=O)(=O)c1ccc(N2CCN(CCOc3ccc(OC)cc3)CC2)nc1 | inactive
COc1cc2c(cc1NC(=O)CSc1nnc(Cc3cccs3)n1C)oc1ccccc12 | inactive
